Here are results for 1 molecule from publication PMC5906627.

Results are given in words; binding and its absence hold for the method and conditions named. Binding seen in cells or lysates may run through a third protein. Binding can be weak; no strength is given.

The assay addresses TNFR1 (human (endogenous in MCF-7)). Briefly: co-IP; 400 ug MCF-7 lysate (25 mM Tris-HCl pH 7.4, 150 mM NaCl, 1 mM EDTA, 1% NP-40, 5% glycerol) incubated overnight with rabbit monoclonal anti-TNFRI antibody, Protein A beads 4 h; blots for FADD, TRADD and TNFRI; cells treated with Z-DAN-11 for several times.

B1: TRADD (protein, UniProt Q15628 1-312)
chain: MAAGQNGHEEWVGSAYLFVESSLDKVVLSDAYAHPQQKVAVYRALQAALAESGGSPDVLQMLKIHRSDPQLIVQLRFCGRQPCGRFLRAYREGALRAALQRSLAAALAQHSVPLQLELRAGAERLDALLADEERCLSCILAQQPDRLRDEELAELEDALRNLKCGSGARGGDGEVASAPLQPPVPSLSEVKPPPPPPPAQTFLFQGQPVVNRPLSLKDQQTFARSVGLKWRKVGRSLQRGCRALRDPALDSLAYEYEREGLYEQAFQLLRRFVQAEGRRATLQRLVEALEENELTSLAEDLLGLTDPNGGLA
As to B1, the binding result is recorded as “binds”.
